PubChem BioAssay AID1259254 – NCATS, 2017

Aim: 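Finding genes that stop cells copying their DNA twice in one cycle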 (primary screen)
Cell system: human HCT116 colorectal cancer cells
Reagent: single siRNA against human genes
Timing: 3 days
Measurement: 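Nuclei stained with Hoechst and imaged; cell-cycle phase assigned by DNA content; G2 share scaled per plate, non-targeting siRNA 0%, GMNN siRNA 100%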
Direction: G2 robust z-score and G2 cells, % of GMNN control: higher = more G2 cells, more excess DNA replication; raw share of cells in G2: higher = larger share of cells with G2 DNA content
Call rule: 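Active siRNAs have a G2 robust z of 5 or more median absolute deviations over the median, which in these data means about 38% or higher of GMNN control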
Here is a random part of about 59,000 reagents. About 1,550 of them (2.6%) were called active. 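G2 share is only a proxy for re-replication; each gene was hit by three separate siRNAs, and active genes were retested.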 Raw values vary from plate to plate and are shown uncorrected. Entries without a mark were called inactive. Reagents against one gene are numbered here. Not given: the amount of reagent.

Target gene	reagent no.	G2 robust z-score	G2 cells, % of GMNN control	raw share of cells in G2 (%)
PKN3	1	-0.585	-1.15	3.31
PKN3	2	2.03	17.2	10.9
PKN3	3	-0.942	-3.66	3.86
ZIK1	1	-1.11	-4.84	1.42
ZIK1	2	-0.455	-0.231	3.09
ZIK1	3	4.04	31.4	14.5
BTG4	1	0.393	5.73	5.09
BTG4	2	0.994	9.96	7.17
BTG4	3	-0.218	1.43	4.88
HDAC11	1	1.18	11.2	8.95
HDAC11	2	0.168	4.15	7.16
HDAC11	3	2.18	18.3	10.8
KRTAP9-4	1	0.301	5.09	4.54
KRTAP9-4	2	-0.924	-3.53	2.58
KRTAP9-4	3	1.75	15.3	7.79
GNB2	1	0.24	4.66	7.03
GNB2	2	-0.8	-2.66	2.71
GNB2	3	-0.646	-1.58	4.66
GDF3	1	2.38	19.7	14.3
GDF3	2	-0.333	0.627	4.21
GDF3	3	0.488	6.4	5.73

Next part (5 carried over from the part before).
Target gene	reagent no.	G2 robust z-score	G2 cells, % of GMNN control	raw share of cells in G2 (%)
GNB2	2	-0.8	-2.66	2.71
GNB2	3	-0.646	-1.58	4.66
GDF3	1	2.38	19.7	14.3
GDF3	2	-0.333	0.627	4.21
GDF3	3	0.488	6.4	5.73
HPD	1	-0.375	0.328	5.81
HPD	2	0.714	7.99	7.13
HPD	3	-0.124	2.1	5.81
ICOS	1	-0.257	1.16	4.3
ICOS	2	0.572	6.99	7.19
ICOS	3	2.96	23.8	10.8
IFT74	1	-0.494	-0.509	4.23
IFT74	2	0.168	4.15	6.12
IFT74	3	1.16	11.1	5.42
NENF	1	1.71	15	13
NENF	2	4.28	33.1	15.2
NENF	3	0.547	6.81	6.22
NLGN3	1	-0.829	-2.86	3.19
NLGN3	2	1.75	15.3	12.9
NLGN3	3	-0.856	-3.05	2.63
MTX1	1	0.38	5.64	7.71
MTX1	2	1.68	14.8	11.1
MTX1	3	-0.536	-0.802	2.93
PNPLA3	1	0.905	9.34	9.32
PNPLA3	2	-0.628	-1.45	4.25
PNPLA3	3	0.556	6.88	6.69
CHTF18	1	-0.177	1.72	5.36
CHTF18	2	3.68	28.8	13
CHTF18	3	1.86	16.1	8.33
ATP2A1	1	1.17	11.2	9.38
ATP2A1	2	1.48	13.4	9.32
ATP2A1	3	-0.0138	2.87	5.5
